# Measured values: the supplement of paper PMC4604168 (melanoma cell lines)
# This is one part of the list. Single values are uncertain, as repeats are few or missing.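 The apoptosis fraction was the count of cleaved-PARP antibody-stained nuclei relative to all DNA-stained nuclei, imaged in 1,536-well plates. Screening doses were set so most cells survived, and baseline and induced cleaved-PARP levels vary greatly across cell lines.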
# Tests used:
# Assay in all cases: cleaved PARP positive nuclei fraction relative to DMSO control; melanoma cells; higher = more apoptosis
# Details in all cases: library dose: low library concentration; 72 h
# WM115 = system: WM115
# WM1716 = system: WM1716
# WM1745 = system: WM1745
# WM3526 = system: WM3526
# WM3619 = system: WM3619
# WM451Lu = system: WM451Lu
Compound,cleaved PARP positive nuclei fraction (WM115) [%],cleaved PARP positive nuclei fraction (WM1716) [%],cleaved PARP positive nuclei fraction (WM1745) [%],cleaved PARP positive nuclei fraction (WM3526) [%],cleaved PARP positive nuclei fraction (WM3619) [%],cleaved PARP positive nuclei fraction (WM451Lu) [%]
"O=C(Nc1cc(C(F)(F)F)cc(C(F)(F)F)c1)c1cc(Cl)ccc1O + Cc1cc(Nc2cc(N3CCN(C)CC3)nc(/C=C/c3ccccc3)n2)n[nH]1 [ENMD2076] (first compound 0.016 µM, partner dose 0.04 µM)",154,105,93.7,37.6,98.1,157
"COc1cc([C@@H]2c3cc4c(cc3[C@@H](O[C@@H]3O[C@@H]5CO[C@@H](C)O[C@H]5[C@H](O)[C@H]3O)[C@H]3COC(=O)[C@H]23)OCO4)cc(OC)c1O [etoposide] + Cn1cnc2c(F)c(Nc3ccc(Br)cc3Cl)c(C(=O)NOCCO)cc21 [selumetinib] (first compound 0.02 µM, partner dose 0.015 µM)",26.3,43.5,110,45.9,111,44.3
"Cc1ccc(Nc2nccc(N(C)c3ccc4c(C)n(C)nc4c3)n2)cc1S(N)(=O)=O [Pazopanib] + CCCS(=O)(=O)Nc1ccc(F)c(C(=O)c2c[nH]c3ncc(Cl)cc23)c1F [PLX4720] (first compound 0.4 µM, partner dose 0.08 µM)",30.7,275,111,74.9,77.8,39.6
"CCCCCCCCCCCCCCCCCCOP(=O)([O-])OC1CC[N+](C)(C)CC1 [Perifosine] + CN(c1ncccc1CNc1nc(Nc2ccc3c(c2)CC(=O)N3)ncc1C(F)(F)F)S(C)(=O)=O [PF562271] (first compound 0.4 µM, partner dose 0.08 µM)",234,65.8,117,21,72.4,205
"O=c1[nH]nc(Sc2ncc([N+](=O)[O-])s2)n1-c1ccc2c(c1)OCCO2 + CCCCCCCCCCCC1=C(O)C(=O)C=C(O)C1=O [Embelin] (first compound 0.2 µM, partner dose 1.2 µM)",66.4,70.3,84.8,78.8,107,61
"CCCCCCCCCCCCCCCCCCOP(=O)([O-])OC1CC[N+](C)(C)CC1 [Perifosine] + COc1cc(N2CCC(N3CCN(C)CC3)CC2)ccc1Nc1ncc(Cl)c(Nc2ccccc2S(=O)(=O)C(C)C)n1 [NVP-TAE684] (first compound 0.4 µM, partner dose 0.08 µM)",80.7,65.9,119,81.1,94.7,183
"N#CC[C@H](C1CCCC1)n1cc(-c2ncnc3[nH]ccc23)cn1 [ruxolitinib] + COc1ccc2c(c1)CCC1C2CCC2(C)C(NCCCCCCN3C(=O)C=CC3=O)CCC12 [U73122] (first compound 1 µM, partner dose 0.4 µM)",103,61.6,90.8,59,98.6,65.8
"O=C(Nc1cc(C(F)(F)F)cc(C(F)(F)F)c1)c1cc(Cl)ccc1O + N#Cc1c(O)c2c(-c3ccc(-c4ccccc4O)cc3)csc2[nH]c1=O [A769662] (first compound 0.016 µM, partner dose 2 µM)",37.7,118,80.9,33.4,63.3,38.9
"Cc1cn(-c2cc(NC(=O)c3ccc(C)c(Nc4nccc(-c5cccnc5)n4)c3)cc(C(F)(F)F)c2)cn1 [nilotinib] + COc1ccc(-c2ccc3c(N4CCOCC4)nc(N4C[C@@H](C)O[C@@H](C)C4)nc3n2)cc1CO [KU0063794] (first compound 0.2 µM, partner dose 0.02 µM)",81,72.7,106,108,99.7,22.2
"Cc1cc(Nc2cc(N3CCN(C)CC3)nc(Sc3ccc(NC(=O)C4CC4)cc3)n2)n[nH]1 [Tozasertib] + C=C(c1ccc(C(=O)O)cc1)c1cc2c(cc1C)C(C)(C)CCC2(C)C [Bexarotene] (first compound 0.006 µM, partner dose 2 µM)",51,51.3,94.6,46.2,110,34.8
"O=C(/C=C/c1cccnc1)NCCCCC1CCN(C(=O)c2ccccc2)CC1 + COc1cc2ncnc(Nc3ccc(Oc4ccccc4)cc3)c2cc1OC [SrcI1] (first compound 0.01 µM, partner dose 2 µM)",44.5,26.7,84.3,75.3,224,95.4
"Cc1cc(Nc2cc(N3CCN(C)CC3)nc(Sc3ccc(NC(=O)C4CC4)cc3)n2)n[nH]1 [Tozasertib] + Cn1cncc1[C@@](N)(c1ccc(Cl)cc1)c1ccc2c(c1)c(-c1cccc(Cl)c1)cc(=O)n2C [tipifarnib] (first compound 0.006 µM, partner dose 0.01 µM)",203,57.8,99.6,56.9,96.9,97.6
"CCCCCCCCCCCCCCCCCCOP(=O)([O-])OC1CC[N+](C)(C)CC1 [Perifosine] + O=C(O)c1ccc2c(c1)nc(Nc1cccc(Cl)c1)c1ccncc12 [CX4945] (first compound 0.4 µM, partner dose 0.4 µM)",111,434,87,89.9,91.4,88
"O=c1[nH]nc(Sc2ncc([N+](=O)[O-])s2)n1-c1ccc2c(c1)OCCO2 + COc1ccc(COc2ccc(Cc3cnc(N)nc3N)cc2OC)cc1 [GW2580] (first compound 0.2 µM, partner dose 1 µM)",52.6,213,89.8,62.1,98.1,46.1
"Cc1cc(Nc2cc(N3CCN(C)CC3)nc(Sc3ccc(NC(=O)C4CC4)cc3)n2)n[nH]1 [Tozasertib] + COc1cc2ncnc(Nc3ccc(Oc4ccccc4)cc3)c2cc1OC [SrcI1] (first compound 0.006 µM, partner dose 2 µM)",66.2,108,127,99.8,101,83.7
"O=C(/C=C/c1cccnc1)NCCCCC1CCN(C(=O)c2ccccc2)CC1 + Cn1c(Nc2ccc(C(F)(F)F)cc2)nc2cc(Oc3ccnc(-c4ncc(C(F)(F)F)[nH]4)c3)ccc21 [CHIR265] (first compound 0.01 µM, partner dose 0.08 µM)",558,77.5,135,161,127,87.6
"CC[C@]1(O)C[C@H]2CN(CCc3c([nH]c4ccccc34)[C@@](C(=O)OC)(c3cc4c(cc3OC)N(C=O)[C@H]3[C@@](O)(C(=O)OC)[C@H](OC(C)=O)[C@]5(CC)C=CCN6CC[C@]43[C@@H]65)C2)C1 [vincristine] + NC1(c2ccc(-c3nc4ccn5c(=O)[nH]nc5c4cc3-c3ccccc3)cc2)CCC1 [MK2206] (first compound 0.0001 µM, partner dose 0.4 µM)",1120,118,111,98.9,204,89.6
"CC[C@]1(O)C[C@H]2CN(CCc3c([nH]c4ccccc34)[C@@](C(=O)OC)(c3cc4c(cc3OC)N(C=O)[C@H]3[C@@](O)(C(=O)OC)[C@H](OC(C)=O)[C@]5(CC)C=CCN6CC[C@]43[C@@H]65)C2)C1 [vincristine] + COc1ccc(COc2ccc(Cc3cnc(N)nc3N)cc2OC)cc1 [GW2580] (first compound 0.0001 µM, partner dose 1 µM)",202,124,79.3,98.4,103,97.9
"COc1cc([C@@H]2c3cc4c(cc3[C@@H](O[C@@H]3O[C@@H]5CO[C@@H](C)O[C@H]5[C@H](O)[C@H]3O)[C@H]3COC(=O)[C@H]23)OCO4)cc(OC)c1O [etoposide] + O=c1cc(-c2cccc3c2Sc2ccccc2S3)oc(N2CCOCC2)c1 [KU55933] (first compound 0.02 µM, partner dose 1 µM)",156,118,101,59.9,109,34.6
"O=C(/C=C/c1cccnc1)NCCCCC1CCN(C(=O)c2ccccc2)CC1 + COc1ccc(-c2ccc3c(N4CCOCC4)nc(N4C[C@@H](C)O[C@@H](C)C4)nc3n2)cc1CO [KU0063794] (first compound 0.01 µM, partner dose 0.02 µM)",157,109,76.3,232,102,51.8
"O=C(Nc1cc(C(F)(F)F)cc(C(F)(F)F)c1)c1cc(Cl)ccc1O + CCCS(=O)(=O)Nc1ccc(F)c(C(=O)c2c[nH]c3ncc(Cl)cc23)c1F [PLX4720] (first compound 0.016 µM, partner dose 0.08 µM)",66.1,394,88.5,96.8,91.1,169
"O=c1[nH]nc(Sc2ncc([N+](=O)[O-])s2)n1-c1ccc2c(c1)OCCO2 + Cn1c(=O)n(-c2ccc(C(C)(C)C#N)cc2)c2c3cc(-c4cnc5ccccc5c4)ccc3ncc21 [NVP-BEZ235] (first compound 0.2 µM, partner dose 0.004 µM)",94.9,68.6,99.8,204,118,93.4
"N#CC[C@H](C1CCCC1)n1cc(-c2ncnc3[nH]ccc23)cn1 [ruxolitinib] + CCCCCCCCCCCCCCCCCCOP(=O)([O-])OC1CC[N+](C)(C)CC1 [Perifosine] (first compound 1 µM, partner dose 0.4 µM)",48.1,18,82.8,69.2,93.3,191
"O=c1[nH]nc(Sc2ncc([N+](=O)[O-])s2)n1-c1ccc2c(c1)OCCO2 + C=C(c1ccc(C(=O)O)cc1)c1cc2c(cc1C)C(C)(C)CCC2(C)C [Bexarotene] (first compound 0.2 µM, partner dose 2 µM)",266,311,89.2,211,113,95.1

# An excerpt of these results, as tab-separated lines.
Compound	cleaved PARP positive nuclei fraction (WM115) [%]	cleaved PARP positive nuclei fraction (WM1716) [%]	cleaved PARP positive nuclei fraction (WM1745) [%]	cleaved PARP positive nuclei fraction (WM3526) [%]	cleaved PARP positive nuclei fraction (WM3619) [%]	cleaved PARP positive nuclei fraction (WM451Lu) [%]
Cc1ccc(Nc2nccc(N(C)c3ccc4c(C)n(C)nc4c3)n2)cc1S(N)(=O)=O [Pazopanib] + CCCS(=O)(=O)Nc1ccc(F)c(C(=O)c2c[nH]c3ncc(Cl)cc23)c1F [PLX4720] (first compound 0.4 µM, partner dose 0.08 µM)	30.7	275	111	74.9	77.8	39.6
N#CC[C@H](C1CCCC1)n1cc(-c2ncnc3[nH]ccc23)cn1 [ruxolitinib] + COc1ccc2c(c1)CCC1C2CCC2(C)C(NCCCCCCN3C(=O)C=CC3=O)CCC12 [U73122] (first compound 1 µM, partner dose 0.4 µM)	103	61.6	90.8	59	98.6	65.8
